No constants are given. Whether binding was seen depends on the method and setting. In cells and extracts the contact can be indirect. Binding calls can cover weak binding; strength is not graded here.
Experiments:
[1] = target: Hexa-His-tagged Etv-RDRP protein (Eimeria tenella RNA virus 1 (Etv)); test: co-IP; Sf9 cells co-infected with baculoviruses for GST-OTU and His-RDRP, 48 h; lysate precipitated with anti-GST or with anti-His and protein A beads; washes with 500 mM NaCl, 1% NP40; Western blot with anti-GST and anti-His
[2] = target: GST-Et-OTU fusion protein (Eimeria tenella) (UniProt U6KRN1); test: pull-down; GST-OTU-Hexa-tagged-RDRP protein complex purified with glutathione-Sepharose 4B and analysed by Western blot
[3] = target: GST-Et-OTU fusion protein (Eimeria tenella) (UniProt U6KRN1); test: pull-down; purified GST-OTU on glutathione-Sepharose 4B beads; Hexa-His-tagged Etv-RDRP added, 4 °C for 4 h in lysis buffer (10 mM Tris-HCl pH 7.5, 150 mM NaCl, 1 mM EDTA, NP-40); washed with PBS; Western blot with anti-His
[4] = target: GST-Et-OTU fusion protein (Eimeria tenella) (UniProt U6KRN1); test: co-IP; Sf9 cells co-infected with baculoviruses for GST-OTU and His-RDRP, 48 h; lysate precipitated with anti-GST or with anti-His and protein A beads; washes with 500 mM NaCl, 1% NP40; Western blot with anti-GST and anti-His

By UniProt entry, the sequences of proteins in these tests, tags left out. Where a name states a change or a piece, a line headed by the entry shows the natural chain unless it says otherwise.
UniProt U6KRN1: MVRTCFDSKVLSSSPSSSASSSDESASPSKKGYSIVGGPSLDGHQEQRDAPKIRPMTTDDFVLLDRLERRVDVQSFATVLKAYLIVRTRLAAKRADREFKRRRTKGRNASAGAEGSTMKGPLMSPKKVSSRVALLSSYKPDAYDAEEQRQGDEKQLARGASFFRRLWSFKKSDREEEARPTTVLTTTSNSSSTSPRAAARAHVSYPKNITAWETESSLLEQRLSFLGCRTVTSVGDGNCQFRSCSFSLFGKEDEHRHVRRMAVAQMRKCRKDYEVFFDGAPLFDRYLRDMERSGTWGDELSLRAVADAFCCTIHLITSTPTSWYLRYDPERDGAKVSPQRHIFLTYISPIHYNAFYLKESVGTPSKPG
UniProt A0A0A7DRF5: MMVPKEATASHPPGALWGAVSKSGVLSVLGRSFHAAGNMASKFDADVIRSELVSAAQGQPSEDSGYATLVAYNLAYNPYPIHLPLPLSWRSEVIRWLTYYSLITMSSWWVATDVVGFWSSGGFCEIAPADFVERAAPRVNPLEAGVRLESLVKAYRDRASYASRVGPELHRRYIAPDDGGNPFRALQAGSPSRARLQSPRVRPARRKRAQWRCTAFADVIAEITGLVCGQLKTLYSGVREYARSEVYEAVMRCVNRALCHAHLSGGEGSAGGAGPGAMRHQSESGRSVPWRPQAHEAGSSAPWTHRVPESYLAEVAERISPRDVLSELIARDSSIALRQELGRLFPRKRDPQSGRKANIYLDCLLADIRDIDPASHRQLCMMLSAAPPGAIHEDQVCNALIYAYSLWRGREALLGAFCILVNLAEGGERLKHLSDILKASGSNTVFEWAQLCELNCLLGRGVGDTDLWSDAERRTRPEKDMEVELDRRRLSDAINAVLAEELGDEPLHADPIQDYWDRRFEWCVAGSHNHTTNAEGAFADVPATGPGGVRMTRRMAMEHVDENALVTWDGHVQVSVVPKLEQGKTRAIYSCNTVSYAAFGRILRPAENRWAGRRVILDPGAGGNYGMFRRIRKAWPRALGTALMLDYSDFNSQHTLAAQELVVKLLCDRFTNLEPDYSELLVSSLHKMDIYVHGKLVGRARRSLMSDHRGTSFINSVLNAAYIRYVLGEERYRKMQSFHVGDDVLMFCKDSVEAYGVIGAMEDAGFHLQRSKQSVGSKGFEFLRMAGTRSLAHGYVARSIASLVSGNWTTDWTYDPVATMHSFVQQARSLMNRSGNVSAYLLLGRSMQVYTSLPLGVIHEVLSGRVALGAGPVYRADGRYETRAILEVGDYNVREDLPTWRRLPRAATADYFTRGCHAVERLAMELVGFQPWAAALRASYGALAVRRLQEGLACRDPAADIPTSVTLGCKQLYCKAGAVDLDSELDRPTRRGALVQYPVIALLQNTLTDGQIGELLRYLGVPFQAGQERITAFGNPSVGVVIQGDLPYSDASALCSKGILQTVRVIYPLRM

Substance	binding [1]	binding [2]	binding [3]	binding [4]
GST-Et-OTU fusion protein (from UniProt U6KRN1) (enzyme)	binds	–	–	–
Hexa-His-tagged Etv-RDRP protein (from UniProt A0A0A7DRF5)	–	binds	binds	binds

— PMC5793433
